Measured values as given in patent US9725423B2, “Tetrazolinone compound and applications thereof” (SUMITOMO CHEMICAL COMPANY, LIMITED, priority 2012, dated 2017).
Where two headings read alike, the source gives them in different places. Some of these results come from one statement about several compounds together.

What was measured:
[1] = test system: wheat rust fungus (Puccinia recondita); assay: Wheat rust control test, foliar spray on wheat (Test Examples 2, 8); format: in vivo; settings: wheat (SHIROGANE), inoculated 5 days after spraying
[2] = test system: rice blast fungus (Magnaporthe grisea); format: in vivo; settings: foliar spray, rice (NIHONBARE), 6 days contact with infected seedlings

Row | Compound | area of lesion spots relative to that on an untreated plant ([1]; 500 ppm) [%] | lesion area with respect to the lesion area on the non-treated plant ([2]; 200 ppm) [%] | lesion area with respect to the lesion area on the non-treated plant ([2]; 500 ppm) [%] | area of lesion spots relative to that on an untreated plant ([1]; 200 ppm) [%]
1 | CCC(=NOCc1c(CC)cccc1-n1nnn(C)c1=O)c1cccc(C(F)(F)F)c1 [present compound 101, 1-{3-ethyl-2-[1-(3-trifluoromethylphenyl)propylideneaminooxymethyl]phenyl}-4-methyl-1,4-dihydrotetrazol-5-one] | ≤ 30 | ≤ 30 | – | –
2 | CON=C(C(C)=NOCc1c(OC)cccc1-n1nnn(C)c1=O)c1ccccc1 [present compound 215, 1-phenylpropane-1,2-dion-2-{O-[2-methoxy-6-(4-methyl-5-oxo-4,5-dihydrotetrazol-1-yl)benzyl]oxime}-1-(O-methyloxime)] | ≤ 30 | – | ≤ 30 | –
3 | CC(=NOCc1c(C)cccc1-n1nnn(C)c1=O)c1cccc(Cl)c1 [present compound 31, 1-{3-methyl-2-[1-(3-chlorophenyl)ethylideneaminooxymethyl]phenyl}-4-methyl-1,4-dihydrotetrazol-5-one] | ≤ 30 | – | ≤ 30 | –
4 | COc1cccc(C(C)=NOCc2c(C3CC3)cccc2-n2nnn(C)c2=O)c1 [present compound 56, 1-{3-cyclopropyl-2-[1-(3-methoxyphenyl)ethylideneaminooxymethyl]phenyl}-4-methyl-1,4-dihydrotetrazol-5-one] | – | ≤ 30 | – | ≤ 30
5 | CCc1cccc(-n2nnn(C)c2=O)c1CON=C(C)c1ccc(OC)c2c1CCC2 [present compound 137, 1-{3-ethyl-2-[1-(7-methoxyindan-4-yl)ethylideneaminooxymethyl]phenyl}-4-methyl-1,4-dihydrotetrazol-5-one] | ≤ 30 | – | ≤ 30 | –
6 | COc1ccc(C(C)=NOCc2c(C)cccc2-n2nnn(C)c2=O)c2c1CCC2 [present compound 136, 1-{2-[1-(7-methoxyindan-4-yl)ethylideneaminooxymethyl]-3-methylphenyl}-4-methyl-1,4-dihydrotetrazol-5-one] | – | – | ≤ 30 | ≤ 30
7 | CC(=NOCc1c(C)cccc1-n1nnn(C)c1=O)c1cccc(C(F)(F)F)c1F [present compound 148, 1-{2-[1-(2-fluoro-3-trifluoromethylphenyl)ethylideneaminooxymethyl]-3-methylphenyl}-4-methyl-1,4-dihydrotetrazol-5-one] | – | ≤ 30 | – | ≤ 30
8 | CCc1cccc(-n2nnn(C)c2=O)c1CON=C(C)c1cccc2c1CCC2 [present compound 124, 1-[3-ethyl-2-(1-indan-4-ylethylideneaminooxymethyl)phenyl]-4-methyl-1,4-dihydrotetrazol-5-one] | – | – | ≤ 30 | ≤ 30
9 | COc1ccc(C(C)=NOCc2c(C3CC3)cccc2-n2nnn(C)c2=O)c2c1CCC2 [present compound 138, 1-{3-cyclopropyl-2-[1-(7-methoxyindan-4-yl)ethylideneaminooxymethyl]phenyl}-4-methyl-1,4-dihydrotetrazol-5-one] | ≤ 30 | ≤ 30 | – | –
10 | CC(=NOCc1c(C)cccc1-n1nnn(C)c1=O)c1cccc2c1CCCC2 [present compound 127, 1-{3-methyl-2-[1-(5,6,7,8-tetrahydronaphthalen-1-yl)ethylideneaminooxymethyl]phenyl}-4-methyl-1,4-dihydrotetrazol-5-one] | – | – | ≤ 30 | ≤ 30
11 | CC(=NOCc1c(Cl)cccc1-n1nnn(C)c1=O)c1ccccc1 [present compound 24, 1-[3-chloro-2-(1-phenylethylideneaminooxymethyl)phenyl]-4-methyl-1,4-dihydrotetrazol-5-one] | ≤ 30 | – | ≤ 30 | –
12 | CC(=NOCc1c(Cl)cccc1-n1nnn(C)c1=O)c1cccc2c1CCC2 [present compound 142, 1-[3-chloro-2-(1-indan-4-ylethylideneaminooxymethyl)phenyl]-4-methyl-1,4-dihydrotetrazol-5-one] | – | – | ≤ 30 | ≤ 30
13 | COc1cccc(C(C)=NOCc2c(OC)cccc2-n2nnn(C)c2=O)c1 [present compound 44, 1-{3-methoxy-2-[1-(3-methoxyphenyl)ethylideneaminooxymethyl]phenyl}-4-methyl-1,4-dihydrotetrazol-5-one] | ≤ 30 | – | ≤ 30 | –
14 | CC(=NOCc1c(C)cccc1-n1nnn(C)c1=O)c1cccc(C(F)(F)F)c1 [present compound 7, 1-{3-methyl-2-[1-(3-trifluoromethylphenyl)ethylideneaminooxymethyl]phenyl}-4-methyl-1,4-dihydrotetrazol-5-one] | – | – | ≤ 30 | ≤ 30
15 | CCc1cccc(-n2nnn(C)c2=O)c1CON=C(C)c1ccc2c(c1)CCCC2 [present compound 107, 1-{3-ethyl-2-[1-(5,6,7,8-tetrahydronaphthalen-2-yl)ethylideneaminooxymethyl]phenyl}-4-methyl-1,4-dihydrotetrazol-5-one] | – | ≤ 30 | – | ≤ 30
16 | CCc1cccc(-n2nnn(C)c2=O)c1CON=C(C)c1cccc2c1CCO2 [present compound 153, 1-{2-[1-(2,3-dihydrobenzofuran-4-yl)ethylideneaminooxymethyl]-3-ethylphenyl]-4-methyl-1,4-dihydrotetrazol-5-one] | ≤ 30 | – | ≤ 30 | –
17 | CC(=NOCc1c(C)cccc1-n1nnn(C)c1=O)c1ccccc1 [present compound 149, 1-[2-(1-phenylethylideneaminooxymethyl)-3-methylphenyl]-4-methyl-1,4-dihydrotetrazol-5-one] | – | – | ≤ 30 | ≤ 30
18 | CC(=NOCc1c(C)cccc1-n1nnn(C)c1=O)c1sccc1C [present compound 258, 1-methyl-4-{3-methyl-2-[1-(3-methyl-2-thienyl)ethylideneaminooxymethyl]phenyl}-1,4-dihydrotetrazol-5-one] | – | ≤ 30 | – | ≤ 30
19 | CC(=NOCc1c(C)cccc1-n1nnn(C)c1=O)c1cccc2c1OC(F)(F)O2 [present compound 134, 1-{2-[1-(2,2-difluorobenzo[1,3]dioxan-4-yl)ethylideneaminooxymethyl]-3-methylphenyl}-4-methyl-1,4-dihydrotetrazol-5-one] | – | ≤ 30 | – | ≤ 30
20 | CC(=NOCc1c(I)cccc1-n1nnn(C)c1=O)c1cccc(C(F)(F)F)c1 [present compound 94, 1-{3-iodo-2-[1-(3-trifluoromethylphenyl)ethylideneaminooxymethyl]phenyl}-4-methyl-1,4-dihydrotetrazol-5-one] | – | ≤ 30 | – | ≤ 30
21 | CC(=NOCc1c(C)cccc1-n1nnn(C)c1=O)c1cccc(C(F)(F)F)c1C [present compound 143, 1-{3-methyl-2-[1-(2-methy 3-difluoromethylphenyl)ethylideneaminooxymethyl]phenyl}-4-methyl-1,4-dihydrotetrazol-5-one] | – | – | ≤ 30 | ≤ 30
22 | CC(=NOCc1c(C)cccc1-n1nnn(C)c1=O)c1cccc(C2CC2)c1C [present compound 144, 1-{2-[1-(3-cyclopropyl-2-methylphenyl)ethylideneaminooxymethyl]-3-methylphenyl}-4-methyl-1,4-dihydrotetrazol-5-one] | – | – | ≤ 30 | ≤ 30
23 | CCC(=NOCc1c(CC)cccc1-n1nnn(C)c1=O)c1cccc(OC(F)(F)F)c1 [present compound 119, 1-{3-ethyl-2-[1-(3-trifluoromethoxyphenyl)propylideneaminooxymethyl]phenyl}-4-methyl-1,4-dihydrotetrazol-5-one] | ≤ 30 | ≤ 30 | – | –
24 | CC(=NOCc1c(C)cccc1-n1nnn(C)c1=O)C1CC1c1c(Cl)cccc1Cl (stereo not drawn) [present compound 217, 1-(2-{1-[2-(2,6-dichlorophenyl)cyclopropyl]ethylideneaminooxymethy 1}-3-methylphenyl)-4-methyl-1,4-dihydrotetrazol-5-one] | ≤ 30 | – | ≤ 30 | –
25 | CC(=NOCc1c(C)cccc1-n1nnn(C)c1=O)C1CC1c1ccc(Cl)cc1 (stereo not drawn) [present compound 216, 1-(2-{1-[2-(4-chlorophenyl)cyclopropyl]ethylideneaminooxymethyl}-3-methylphenyl)-4-methyl-1,4-dihydrotetrazol-5-one] | – | ≤ 30 | – | ≤ 30
26 | CC(=NOCc1c(C2CC2)cccc1-n1nnn(C)c1=O)c1cccc(OC(F)F)c1 [present compound 86, 1-{3-cyclopropy-2-[1-(3-difluoromethoxyphenyl)ethylideneaminooxymethyl]phenyl}-4-methyl-1,4-dihydrotetrazol-5-one] | – | – | – | ≤ 30
